# ± gives the standard deviation of the averaged measurements. This is one part of the list.
# Protein sequences, listed by entry. Tags and fused reporters are not part of them. Lines headed by an entry give the natural chain unless they say otherwise; changes in a name come on top.
# UniProt O95104: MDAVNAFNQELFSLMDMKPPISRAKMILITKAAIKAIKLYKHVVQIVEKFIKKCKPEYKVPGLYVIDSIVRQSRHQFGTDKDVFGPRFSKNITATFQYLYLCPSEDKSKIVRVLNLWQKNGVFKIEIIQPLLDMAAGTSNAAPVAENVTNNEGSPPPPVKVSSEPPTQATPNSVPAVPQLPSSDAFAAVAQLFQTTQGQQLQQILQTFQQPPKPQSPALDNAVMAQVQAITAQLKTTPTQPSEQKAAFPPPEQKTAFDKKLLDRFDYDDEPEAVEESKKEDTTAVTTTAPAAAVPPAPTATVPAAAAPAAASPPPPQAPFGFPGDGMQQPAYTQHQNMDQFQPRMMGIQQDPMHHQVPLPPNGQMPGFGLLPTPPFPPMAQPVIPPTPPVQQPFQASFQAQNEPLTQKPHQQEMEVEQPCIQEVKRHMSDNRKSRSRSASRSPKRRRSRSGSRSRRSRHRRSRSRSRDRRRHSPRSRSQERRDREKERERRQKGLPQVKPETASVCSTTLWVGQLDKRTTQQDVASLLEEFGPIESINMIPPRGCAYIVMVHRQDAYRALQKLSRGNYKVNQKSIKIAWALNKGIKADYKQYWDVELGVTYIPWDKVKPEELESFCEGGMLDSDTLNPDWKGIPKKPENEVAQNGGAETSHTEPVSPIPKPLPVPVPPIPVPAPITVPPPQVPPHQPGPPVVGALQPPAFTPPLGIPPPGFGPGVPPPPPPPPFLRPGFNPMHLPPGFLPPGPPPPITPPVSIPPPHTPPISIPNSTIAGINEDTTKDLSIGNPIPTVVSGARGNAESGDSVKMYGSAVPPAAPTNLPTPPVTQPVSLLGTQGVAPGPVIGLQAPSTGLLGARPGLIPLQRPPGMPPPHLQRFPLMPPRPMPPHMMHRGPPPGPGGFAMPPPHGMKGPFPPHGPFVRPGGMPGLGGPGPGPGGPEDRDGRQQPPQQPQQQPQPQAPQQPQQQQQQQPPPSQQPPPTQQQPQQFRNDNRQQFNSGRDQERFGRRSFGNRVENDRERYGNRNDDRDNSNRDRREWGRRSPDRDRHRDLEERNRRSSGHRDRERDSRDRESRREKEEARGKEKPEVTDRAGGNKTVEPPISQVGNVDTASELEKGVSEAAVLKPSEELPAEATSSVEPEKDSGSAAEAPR
# UniProt O75915: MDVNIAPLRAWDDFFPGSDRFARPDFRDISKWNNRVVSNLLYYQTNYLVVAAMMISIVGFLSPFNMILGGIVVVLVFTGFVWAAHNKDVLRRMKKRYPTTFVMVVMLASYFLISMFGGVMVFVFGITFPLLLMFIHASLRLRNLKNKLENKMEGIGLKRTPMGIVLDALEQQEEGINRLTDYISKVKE
# UniProt O75874, whole entry: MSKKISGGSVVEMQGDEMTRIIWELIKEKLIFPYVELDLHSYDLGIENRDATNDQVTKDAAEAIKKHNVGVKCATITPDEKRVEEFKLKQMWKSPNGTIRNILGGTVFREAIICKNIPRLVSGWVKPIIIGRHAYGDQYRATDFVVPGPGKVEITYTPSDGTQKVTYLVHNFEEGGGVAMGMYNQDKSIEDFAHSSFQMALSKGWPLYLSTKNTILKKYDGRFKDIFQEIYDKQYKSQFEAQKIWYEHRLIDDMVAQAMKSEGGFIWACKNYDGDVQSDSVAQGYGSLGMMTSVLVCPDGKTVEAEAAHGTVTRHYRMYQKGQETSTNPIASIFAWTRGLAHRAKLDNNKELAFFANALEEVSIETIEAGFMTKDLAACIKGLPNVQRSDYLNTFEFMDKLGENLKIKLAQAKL
# UniProt O94842: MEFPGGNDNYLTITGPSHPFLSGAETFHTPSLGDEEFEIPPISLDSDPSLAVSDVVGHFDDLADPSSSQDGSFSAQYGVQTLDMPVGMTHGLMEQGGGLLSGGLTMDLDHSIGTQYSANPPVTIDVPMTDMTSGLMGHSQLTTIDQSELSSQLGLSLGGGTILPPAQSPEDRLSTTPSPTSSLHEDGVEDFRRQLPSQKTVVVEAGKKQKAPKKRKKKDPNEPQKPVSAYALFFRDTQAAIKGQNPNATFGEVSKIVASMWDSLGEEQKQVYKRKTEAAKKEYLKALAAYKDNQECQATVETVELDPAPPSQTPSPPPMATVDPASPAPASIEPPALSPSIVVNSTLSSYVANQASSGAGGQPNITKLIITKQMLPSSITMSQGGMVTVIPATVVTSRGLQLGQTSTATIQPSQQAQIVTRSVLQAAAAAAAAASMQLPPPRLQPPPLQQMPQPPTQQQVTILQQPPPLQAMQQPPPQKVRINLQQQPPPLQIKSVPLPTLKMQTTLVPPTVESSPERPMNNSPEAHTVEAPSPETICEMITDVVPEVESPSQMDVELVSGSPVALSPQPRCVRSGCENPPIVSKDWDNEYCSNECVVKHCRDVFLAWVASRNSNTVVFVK
# UniProt O75947: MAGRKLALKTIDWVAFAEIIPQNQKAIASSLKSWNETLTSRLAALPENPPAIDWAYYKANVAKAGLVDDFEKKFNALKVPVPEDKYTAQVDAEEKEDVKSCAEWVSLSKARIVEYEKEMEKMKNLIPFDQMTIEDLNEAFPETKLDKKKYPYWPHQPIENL
# Compound: Nc1nc2c(ncn2[C@@H]2O[C@H](COP(=O)(O)OP(=O)(O)OP(=O)(O)O)[C@@H](O)[C@H]2O)c(=O)[nH]1 [guanosine triphosphate]
# Assay: NP40-soluble protein abundance relative to vehicle (solubility fold change) (ratio); higher = more soluble protein in presence of GTP
# Procedure: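 Solubility proteome profiling in Jurkat crude lysate. Lysate was treated with Mg-GTP (0.1-10 mM) for 10 min at room temperature and 3 min at 37 °C, then solubilised with 0.8% NP40 and benzonase, followed by ultracentrifugation. Proteins were quantified by TMT10 LC-MS/MS; the value is the NP40-soluble abundance relative to the NP40-processed vehicle, from 3 independent experiments.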
Target,NP40-soluble protein abundance (concentration: 0.1mM),NP40-soluble protein abundance (concentration: 0.5mM),NP40-soluble protein abundance (concentration: 1mM),NP40-soluble protein abundance (concentration: 2mM),NP40-soluble protein abundance (concentration: 4mM),NP40-soluble protein abundance (concentration: 6mM),NP40-soluble protein abundance (concentration: 8mM),NP40-soluble protein abundance (concentration: 10mM)
UniProt O95104 and related entries,1.11 ± 0.029,1.25 ± 0.13,1.29 ± 0.13,1.29 ± 0.14,1.27 ± 0.13,1.26 ± 0.12,1.33 ± 0.2,1.33 ± 0.19
ARL6IP5 (UniProt O75915),0.965 ± 0.096,0.983 ± 0.078,0.861 ± 0.06,0.83 ± 0.027,0.798 ± 0.023,0.876 ± 0.075,0.813 ± 0.06,0.775 ± 0.028
IDH1 (UniProt O75874),0.985 ± 0.012,0.9926 ± 0.0038,0.93 ± 0.022,0.911 ± 0.022,0.889 ± 0.037,0.9 ± 0.033,0.888 ± 0.029,0.88 ± 0.055
UniProt O94842 and related entries,0.959 ± 0.052,0.929 ± 0.093,0.956 ± 0.023,0.962 ± 0.068,0.958 ± 0.051,1.02 ± 0.05,0.984 ± 0.039,0.997 ± 0.075
UniProt O75947,0.949 ± 0.11,0.938 ± 0.068,1.1 ± 0.18,1.05 ± 0.091,1.04 ± 0.14,1.12 ± 0.1,1.14 ± 0.17,1.17 ± 0.2
